# Primary screen of a compound library

From ChEMBL document CHEMBL3988442, “University of Dundee, Small-Polar-MMV Screening Library” (2021).

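Assay on Mycobacterium tuberculosis, filed only as a heat shock assay from Cornell; the read-out is not stated. The concentration is filed as 10 mM, unlikely as a test dose, so the dose is not known. Direction is inferred from retests: higher values go with stronger inhibition. About 69,000 compounds were tested under these conditions; 1.4% (about 930) showed 50% or more at least once.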

Results are given as percent effect.
How 0% and 100% were set is not recorded. Most values in the screen are low, and negative values occur.
Compounds were drawn at random from those tested, without regard to their results.

{"structure": "CC(C)CN1CCC2(CC1)C(=O)Nc1ccc(C(=O)NC(C)C)cc12.O=C(O)C(F)(F)F", "effect": -35.68}
{"structure": "CCN(Cc1ccoc1)C(=O)c1ccc(C)c(S(N)(=O)=O)c1", "effect": 5.914}
{"structure": "Cc1cc(C)n(C2CN(CC(O)c3ccc4c(c3)OCO4)C2)n1", "stereo": "stereo not drawn", "effect": 7.267}
{"structure": "CC(NC(N)=O)C(=O)N(C)CCCc1cc(-c2ccccc2)no1", "stereo": "stereo not drawn", "effect": 13.29}
{"structure": "CC(O)(CNC(=O)NCc1cccc(-n2cncn2)c1)c1ccco1", "stereo": "stereo not drawn", "effect": 12.41}
{"structure": "CCC(=O)N1CCC(c2ncc3c(n2)CCNC3)CC1", "effect": -3.94}
{"structure": "CN(C)c1ncc2c(n1)N(C)CCN(CC1CC1)C2=O", "effect": -8.357}
{"structure": "CCN(Cc1ccccn1)C1CCN(c2ccccc2)C1=O", "stereo": "stereo not drawn", "effect": -8.666}
{"structure": "COc1ccc(CNC(=O)c2ccc(Br)cn2)cc1", "effect": 27.98}
{"structure": "Cc1ccc(C(C(=O)NCCc2nc(C)cc(=O)[nH]2)N(C)C)cc1", "stereo": "stereo not drawn", "effect": 0.0185}
{"structure": "[H][C@]12CC[C@@]3(N=C(CC)N(C)C3=O)[C@@]1([H])CN(S(=O)(=O)CC(C)C)C2", "effect": 8.116}
{"structure": "NC(=O)CN1CCC(C(=O)NCCc2nc(-c3ccccc3)cs2)CC1", "effect": 15.27}
{"structure": "OCCOc1ccccc1CN1CCCC(O)(CO)C1", "stereo": "stereo not drawn", "effect": -1.452}
{"structure": "CC(=O)N(C)CCc1nc(-c2cc(C(N)=O)co2)cs1", "effect": -9.709}
{"structure": "CN(C)S(=O)(=O)N1CCC(Oc2cccnn2)CC1", "effect": 8.775}
{"structure": "CCSc1ccccc1C(=O)N1CCC(S(=O)(=O)c2nncn2C)CC1", "effect": 9.358}
{"structure": "O=C(O)C(F)(F)F.c1ccc(N2CCCC3(CCN(Cc4cccs4)C3)C2)nc1", "stereo": "stereo not drawn", "effect": -4.42}
{"structure": "C[C@@H]1CN(S(C)(=O)=O)C[C@]12CCN(Cc1cccnc1)C2=O.O=C(O)C(F)(F)F", "effect": -19.28}
{"structure": "CCN(CCCNCc1c(C)nn(C)c1N(C)C)S(C)(=O)=O", "effect": 13.11}
{"structure": "CCNC(=O)CN1CCC(OCC2CCCO2)CC1", "stereo": "stereo not drawn", "effect": -1.422}
{"structure": "O=C(O)C(F)(F)F.O=C(O)C(F)(F)F.O=C1CC[C@]2(CC[C@@H](NC3CCOC3)CC2)N1Cc1ccncc1", "stereo": "stereo partly drawn", "effect": -0.4599}
{"structure": "CC(=O)N1CCCC1(C)c1nc(C)no1", "stereo": "stereo not drawn", "effect": 2.507}
{"structure": "O=C(CN(CC1CCC1)CC(F)(F)F)N1CCOCC1", "effect": 18.13}
{"structure": "O=c1[nH]c(-c2ccccn2)nc2c1CCN(S(=O)(=O)N1CCCC1)C2", "effect": 87.3}
{"structure": "CCC(Nc1nnnn1-c1ccccc1)C(=O)NC1CCSCC1", "stereo": "stereo not drawn", "effect": 2.549}
{"structure": "O=C(c1cccc(N2CCCC2=O)c1)N1CCCC(n2cccn2)C1", "stereo": "stereo not drawn", "effect": 3.205}
{"structure": "CCN1CCN(CC(O)c2ccc(OC(F)(F)F)cc2)CC1", "stereo": "stereo not drawn", "effect": -13.74}
{"structure": "COCC(=O)N1CCC(C(=O)c2cc(C)cnc2N)CC1", "effect": -9.124}
{"structure": "O=C(O)C(F)(F)F.[H][C@]12CN(C(=O)C3CCC3)C[C@@]1([H])C(=O)N(Cc1ccncc1)C2", "effect": 6.384}
{"structure": "[H][C@]12CC[C@]([H])(C1)N(C(=O)c1cccnc1-c1cc(OC)ccc1F)C2", "effect": -13.69}
{"structure": "O=C(NC[C@H]1OC[C@@H](NCc2ccccc2F)[C@@H]1O)c1ccc(F)cc1", "effect": -31.99}
{"structure": "CCC(c1ccccc1)S(=O)(=O)CCO", "stereo": "stereo not drawn", "effect": 11.39}
{"structure": "O=C(Nc1cnn(COc2ccc(F)cc2Cl)c1)C1CC1", "effect": 38.47}
{"structure": "[H][C@@]12CCN(C3CCOCC3)[C@]1([H])CC[C@@H](c1nnc(C)o1)O2", "effect": 5.319}
{"structure": "Cc1cc(NCCNS(C)(=O)=O)nc2cc3c(cc12)CCC3", "effect": -7.61}
{"structure": "COc1ccc(OCC2CCCN(c3nc(CO)cs3)C2)cc1", "stereo": "stereo not drawn", "effect": -46.38}
{"structure": "CC(c1nc(C2CC2)no1)N1CCN(Cc2ccsc2)CC1", "stereo": "stereo not drawn", "effect": 17.73}
{"structure": "COc1ccc(N2CCN(C(=O)CCc3n[nH]c(C)n3)CC2=O)cc1", "effect": -4.381}
{"structure": "CCn1nc(C)c(C(=O)Nc2ccc3c(c2)C(C)(C)C(=O)N3C)c1C", "effect": -7.662}
{"structure": "CC(=O)Nc1nc(C(=O)N2CCCC2c2ccccc2C)cs1", "stereo": "stereo not drawn", "effect": -20.55}
{"structure": "CSCc1cccc(S(=O)(=O)N2CCC(C)CC2)c1", "effect": -4.496}
{"structure": "Cc1noc(C)c1-c1cccc(CC2CCN(C(=O)c3cscn3)C2)n1", "stereo": "stereo not drawn", "effect": -12.61}
{"structure": "COC(=O)c1cccn1C1CCN(S(=O)(=O)c2ccccc2)CC1", "effect": -38.54}
{"structure": "CC(=O)N1CCC(Cc2ccc(-c3ccnn3C)nc2)CC1", "effect": 3.48}
{"structure": "COCCn1cnc2ccc(NC(=O)CCCn3cccn3)cc2c1=O", "effect": -2.207}
{"structure": "CN(CC(N)=O)CC(=O)N1CC=C(c2ccccc2)CC1", "effect": -4.556}
{"structure": "O=C(O)C(F)(F)F.O=C(O)C(F)(F)F.[H][C@@]12COC[C@]1(CN(C)C)CN(C(=O)c1cccnc1OC)C2", "effect": 0.4184}
{"structure": "Cc1cc(CN(C)Cc2csc(-c3ccc(C(C)C)cc3)n2)no1", "effect": 6.41}
{"structure": "Cl.Cn1ccnc1N1CCN(C(=O)Cc2ccccc2)CC1", "effect": -7.185}
{"structure": "O=C(O)C(F)(F)F.[H][C@@]12CCN(c3cccnc3)C[C@]1([H])CN(C(=O)CC1CC1)C2", "effect": -11.14}
{"structure": "Cc1nnc(NC(=O)NCc2ccc(N3CCNC(=O)C3)cc2)s1", "effect": 9.655}
{"structure": "CCOCC1CC2(CCN(C(=O)c3cscn3)CC2)CO1", "stereo": "stereo not drawn", "effect": -18.49}
{"structure": "O=C1CCCN1CCCN1CCCC1Cn1cccn1", "stereo": "stereo not drawn", "effect": 2.072}
{"structure": "COc1c(CNCc2cccnc2N2CCCCC2)c(C)nn1C", "effect": -23.51}
{"structure": "Cc1nn(CCNS(=O)(=O)c2ccccc2)c(C)c1Cl", "effect": 3.593}
{"structure": "CCc1nc(C2CCCN(c3nccc(C)n3)C2)no1", "stereo": "stereo not drawn", "effect": 3.129}

The first 5 entries again:

{"structure": "CC(C)CN1CCC2(CC1)C(=O)Nc1ccc(C(=O)NC(C)C)cc12.O=C(O)C(F)(F)F", "effect": -35.68}
{"structure": "CCN(Cc1ccoc1)C(=O)c1ccc(C)c(S(N)(=O)=O)c1", "effect": 5.914}
{"structure": "Cc1cc(C)n(C2CN(CC(O)c3ccc4c(c3)OCO4)C2)n1", "stereo": "stereo not drawn", "effect": 7.267}
{"structure": "CC(NC(N)=O)C(=O)N(C)CCCc1cc(-c2ccccc2)no1", "stereo": "stereo not drawn", "effect": 13.29}
{"structure": "CC(O)(CNC(=O)NCc1cccc(-n2cncn2)c1)c1ccco1", "stereo": "stereo not drawn", "effect": 12.41}